The source of these data is the supplement of paper PMC12009310.

For test [1], the system named is mIMCD3. Description: robust z score of cell number vs plate controls; higher = more cells (less cytotoxic). Particulars: 10 µM, 48 h.
The subject of test [2] is mIMCD3. Description: robust z score of cilia incidence (% cells with single cilium) vs plate controls; higher = more ciliated cells. To be noted: 10 µM; 48 h; siRNA: siScr.
Test [3] relates to mIMCD3. Description: robust z score of cilia incidence (% cells with single cilium) vs plate controls; higher = more ciliated cells (rescue of cilia loss). Particulars: 10 µM; 48 h; siRNA: siRpgrip1l.

Counter-ions that a name gives are not always drawn. ± gives the standard deviation of the averaged measurements. This is one part of the list. Part of the spread comes from offsets between plates or batches.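 The cells are a mouse kidney inner medullary collecting duct line, silenced either for the ciliary gene Rpgrip1l or with a non-targeting control siRNA.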

On to `O=C(O)C1=CCNCC1` [Isoguvacine hydrochloride], for which the entries for the “robust z score of cell number” value in test [1] (siRNA: siRpgrip1l) and in test [1] (siRNA: siScr) were 4.77 ± 9.7 and -0.736 ± 1.6, respectively. The “robust z score of cilia incidence” value is 0.0342 ± 1.2 in test [2] and -9.11 ± 7.8 in test [3].

As to `Clc1ccc2c(c1)N=C(N1CCNCC1)c1ccccc1N2` [N-Desmethylclozapine], the “robust z score of cell number” value in test [1] (siRNA: siRpgrip1l) is -20.6 ± 2.9; in test [1] (siRNA: siScr) it was -20.3 ± 9.2. In addition, the “robust z score of cilia incidence” value in test [2] was -24.8 ± 10; in test [3] it was -22.3 ± 4.

Turning to `C[C@H](NC(=O)c1sccc1OCc1ccc(Cl)cc1)c1ccccc1`, the “robust z score of cell number” value was -62.1 ± 53 in test [1] (siRNA: siRpgrip1l) and -51.4 ± 1.6 in test [1] (siRNA: siScr). For the same molecule, the “robust z score of cilia incidence” value in test [2] is -59.5 ± 11; in test [3], -36.4 ± 11.

Take `CC(C)C[C@@H](C(=O)N[C@H](C(=O)OC1CCCC1)c1ccccc1)[C@H](O)C(=O)NO`: the “robust z score of cell number” value was -42.5 ± 43 in test [1] (siRNA: siRpgrip1l) and -26.1 ± 26 in test [1] (siRNA: siScr). Moreover, the entries for the “robust z score of cilia incidence” value in test [2] and in test [3] were -9.26 ± 5.6 and -12.8 ± 7.7, respectively.

In the case of `CCn1c(=O)n(C2=C(CO)CN(CC3CCCCCCC3)CC2)c2ccccc21`, the “robust z score of cell number” value in test [1] (siRNA: siRpgrip1l) is -18.9 ± 5.6; in test [1] (siRNA: siScr), -92.9 ± 76. Moreover, the “robust z score of cilia incidence” value in test [2] is -21.8 ± 1.2; in test [3] it was -38.3 ± 1.9.

In the case of `CC#CCOC(=O)C1=CCCN(C)C1` [Arecaidine but-2-ynyl ester tosylate], the “robust z score of cell number” value in test [1] (siRNA: siRpgrip1l) is 2.08 ± 8.8; in test [1] (siRNA: siScr), -7.33 ± 3.8. The “robust z score of cilia incidence” value in test [2] was 0.8 ± 1.7; in test [3], -7.03 ± 6.8.

On to `COc1cc2ncn(-c3cc(OCc4ccccc4C(F)(F)F)c(C(N)=O)s3)c2cc1OC`, for which the “robust z score of cell number” value in test [1] (siRNA: siRpgrip1l) was -25.7 ± 24; in test [1] (siRNA: siScr), -12.2 ± 12. Moreover, the “robust z score of cilia incidence” value in test [2] was -15 ± 11; in test [3], -17.3 ± 2.

Turning to `CCCCCCCCCCCCCCCC(=O)NCCO` [Palmitoylethanolamide], the “robust z score of cell number” value in test [1] (siRNA: siRpgrip1l) is -3.48 ± 1.3; in test [1] (siRNA: siScr) it was -0.0934 ± 2.1. Further, the “robust z score of cilia incidence” value in test [2] is -0.744 ± 4; in test [3] it was -8.7 ± 2.5.

Turning to `O=C(O)c1cc(O)c2ccc(Cl)cc2n1` [7-Chlorokynurenic acid], the “robust z score of cell number” value in test [1] (siRNA: siRpgrip1l) turned out to be 17.7 ± 26; in test [1] (siRNA: siScr) it was 1.34 ± 0.22. Moreover, the “robust z score of cilia incidence” value in test [2] was 1.57 ± 2.1; in test [3], -7.13 ± 6.8.

`Cc1ccc(Sc2cncc3sc(C(N)=O)cc23)cc1`: the entries for the “robust z score of cell number” value in test [1] (siRNA: siRpgrip1l) and in test [1] (siRNA: siScr) were -12.7 ± 5.4 and -66.5 ± 57, respectively. Besides, the “robust z score of cilia incidence” value in test [2] was -7.29 ± 1.9; in test [3] it was -21.4 ± 4.8.

As to `N[C@@H]1CCN(O)C1=O`, the “robust z score of cell number” value in test [1] (siRNA: siRpgrip1l) is -1.89 ± 4.7; in test [1] (siRNA: siScr) it was 2.65 ± 1.2. Moreover, the “robust z score of cilia incidence” value in test [2] was 0.472 ± 0.077; in test [3] it was -6.02 ± 6.5.

In the case of `Fc1ccc(-c2nc3n(c2-c2ccncc2)CCS3)cc1`, the “robust z score of cell number” value in test [1] (siRNA: siRpgrip1l) was -12.8 ± 6; in test [1] (siRNA: siScr), -18.4 ± 15. For the same molecule, the “robust z score of cilia incidence” value in test [2] is -1.25 ± 2.4; in test [3], -16.2 ± 13.

In the case of `Cc1ccc(/C=N/NC(=O)c2ccccc2Oc2ccccc2)o1`, the “robust z score of cell number” value in test [1] (siRNA: siRpgrip1l) was -25 ± 24; in test [1] (siRNA: siScr), -12 ± 9.9. For the same molecule, the figures for the “robust z score of cilia incidence” value in test [2] and in test [3] were -16.9 ± 13 and -20 ± 6.5, respectively.

For `CC[C@]1(O)C[C@H]2CN(CCc3c([nH]c4ccccc34)[C@@](C(=O)OC)(c3cc4c(cc3OC)N(C=O)[C@H]3[C@@](O)(C(=O)OC)[C@H](OC(C)=O)[C@]5(CC)C=CCN6CC[C@]43[C@@H]65)C2)C1` [Vincristine sulfate], the results for the “robust z score of cell number” value in test [1] (siRNA: siRpgrip1l) and in test [1] (siRNA: siScr) were -54.7 ± 46 and -46.8 ± 3.2, respectively. Moreover, the results for the “robust z score of cilia incidence” value in test [2] and in test [3] were -80.6 ± 16 and -43.7 ± 1.9, respectively.

For `COc1cccc(CCc2ccccc2OCC[C@@H]2C[C@@H](O)CN2C)c1`, the “robust z score of cell number” value in test [1] (siRNA: siRpgrip1l) was -29.5 ± 25; in test [1] (siRNA: siScr) it was -34.6 ± 20. In addition, the figures for the “robust z score of cilia incidence” value in test [2] and in test [3] were -110 ± 68 and -104 ± 88, respectively.

With `Nc1nc(F)nc2c1ncn2[C@@H]1O[C@H](CO)[C@@H](O)[C@@H]1O` [Fludarabine], the “robust z score of cell number” value in test [1] (siRNA: siRpgrip1l) was -14.2 ± 13; in test [1] (siRNA: siScr) it was -7.82 ± 3.3. In addition, the results for the “robust z score of cilia incidence” value in test [2] and in test [3] were -5.26 ± 2.4 and -3.77 ± 0.46, respectively.

For `CC(C)(C(=O)O)c1ccc(C(O)CCCN2CCC(C(O)(c3ccccc3)c3ccccc3)CC2)cc1` (stereo not given) [Fexofenadine hydrochloride], the “robust z score of cell number” value is -4.32 ± 5.1 in test [1] (siRNA: siRpgrip1l) and -2.2 ± 0.81 in test [1] (siRNA: siScr). The “robust z score of cilia incidence” value was -0.632 ± 2.4 in test [2] and -8.04 ± 3 in test [3].

Consider `CC1(C)Oc2ccc(C#N)cc2[C@@H](N2CCCC2=O)[C@@H]1O` [Levcromakalim], for which the “robust z score of cell number” value in test [1] (siRNA: siRpgrip1l) is -26.4 ± 32; in test [1] (siRNA: siScr), -3.94 ± 8.5. Further, the “robust z score of cilia incidence” value in test [2] was 0.883 ± 1.1; in test [3], -4.8 ± 0.57.

With `N[C@@H](CC(=O)Nc1ccc(Oc2cc(F)c(F)cc2Br)cc1)C(=O)O`, the entries for the “robust z score of cell number” value in test [1] (siRNA: siRpgrip1l) and in test [1] (siRNA: siScr) were -2.16 ± 5 and -23.4 ± 32, respectively. Also, the results for the “robust z score of cilia incidence” value in test [2] and in test [3] were -2.78 ± 2.9 and -15.1 ± 3.1, respectively.

In the case of `Cc1c(C(=O)N(C)C2CCCCC2)sc2nc3ccc(N)cc3n12`, the “robust z score of cell number” value in test [1] (siRNA: siRpgrip1l) is -12.7 ± 4; in test [1] (siRNA: siScr) it was -16.2 ± 4.8. In addition, the “robust z score of cilia incidence” value in test [2] is -19 ± 16; in test [3], -20.4 ± 16.

Consider `COC(=O)C1=C(C)NC(C)=C(C(=O)OCCCN2CCC(c3ccccc3)(c3ccccc3)CC2)[C@@H]1c1cccc([N+](=O)[O-])c1` [(R)-(-)-Niguldipine hydrochloride], for which the “robust z score of cell number” value in test [1] (siRNA: siRpgrip1l) is -56.6 ± 45; in test [1] (siRNA: siScr) it was -22.7 ± 4.9. Also, the “robust z score of cilia incidence” value in test [2] is -20.7 ± 0.55; in test [3], -37.5 ± 14.

As for `Brc1c(NC2=NCCN2)ccc2nccnc12` [UK 14,304 tartrate], the “robust z score of cell number” value was -3.18 ± 4.2 in test [1] (siRNA: siRpgrip1l) and -1.43 ± 0.64 in test [1] (siRNA: siScr). The figures for the “robust z score of cilia incidence” value in test [2] and in test [3] were 2.38 ± 1 and -7.45 ± 4.4, respectively.

As to `CCN1CCC[C@H]1CNC(=O)c1c(O)c(Cl)cc(Cl)c1OC` [Raclopride], the “robust z score of cell number” value in test [1] (siRNA: siRpgrip1l) was determined as 1.8 ± 1.9; in test [1] (siRNA: siScr), 2.64 ± 4. In addition, the “robust z score of cilia incidence” value in test [2] is -5.37 ± 6.3; in test [3], -30.6 ± 29.

Consider `COc1ccc(-c2oc3cc(OC)ccc3c2C(=O)c2ccc(C#N)cc2)cc1`, for which the “robust z score of cell number” value in test [1] (siRNA: siRpgrip1l) was -6.7 ± 4; in test [1] (siRNA: siScr), -0.223 ± 1.9. Moreover, the results for the “robust z score of cilia incidence” value in test [2] and in test [3] were -2.31 ± 2.6 and -4.41 ± 2.3, respectively.

Turning to `CCCCCCCC/C=C\CCCCCCCC(=O)NCc1ccc(O)c(OC)c1` [Olvanil], the entries for the “robust z score of cell number” value in test [1] (siRNA: siRpgrip1l) and in test [1] (siRNA: siScr) were -29.9 ± 1.5 and -28.4 ± 15, respectively. Also, the “robust z score of cilia incidence” value is -46.4 ± 7 in test [2] and -28.4 ± 4.5 in test [3].
